No constants are given. Whether binding was seen depends on the method and setting. Binding seen in cells or lysates may run through a third protein. Some entries that bind do so weakly or less than the wild type.

Chains of the proteins cited; added tags and fusions are not shown.
UniProt O95931: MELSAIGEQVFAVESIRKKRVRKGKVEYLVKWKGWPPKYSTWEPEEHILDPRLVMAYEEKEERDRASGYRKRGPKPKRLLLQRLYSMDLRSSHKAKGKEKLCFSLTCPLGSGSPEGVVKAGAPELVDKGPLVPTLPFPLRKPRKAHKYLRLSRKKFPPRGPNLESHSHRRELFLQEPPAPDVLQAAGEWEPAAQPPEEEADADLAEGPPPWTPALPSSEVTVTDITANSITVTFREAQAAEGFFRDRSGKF
UniProt P35579: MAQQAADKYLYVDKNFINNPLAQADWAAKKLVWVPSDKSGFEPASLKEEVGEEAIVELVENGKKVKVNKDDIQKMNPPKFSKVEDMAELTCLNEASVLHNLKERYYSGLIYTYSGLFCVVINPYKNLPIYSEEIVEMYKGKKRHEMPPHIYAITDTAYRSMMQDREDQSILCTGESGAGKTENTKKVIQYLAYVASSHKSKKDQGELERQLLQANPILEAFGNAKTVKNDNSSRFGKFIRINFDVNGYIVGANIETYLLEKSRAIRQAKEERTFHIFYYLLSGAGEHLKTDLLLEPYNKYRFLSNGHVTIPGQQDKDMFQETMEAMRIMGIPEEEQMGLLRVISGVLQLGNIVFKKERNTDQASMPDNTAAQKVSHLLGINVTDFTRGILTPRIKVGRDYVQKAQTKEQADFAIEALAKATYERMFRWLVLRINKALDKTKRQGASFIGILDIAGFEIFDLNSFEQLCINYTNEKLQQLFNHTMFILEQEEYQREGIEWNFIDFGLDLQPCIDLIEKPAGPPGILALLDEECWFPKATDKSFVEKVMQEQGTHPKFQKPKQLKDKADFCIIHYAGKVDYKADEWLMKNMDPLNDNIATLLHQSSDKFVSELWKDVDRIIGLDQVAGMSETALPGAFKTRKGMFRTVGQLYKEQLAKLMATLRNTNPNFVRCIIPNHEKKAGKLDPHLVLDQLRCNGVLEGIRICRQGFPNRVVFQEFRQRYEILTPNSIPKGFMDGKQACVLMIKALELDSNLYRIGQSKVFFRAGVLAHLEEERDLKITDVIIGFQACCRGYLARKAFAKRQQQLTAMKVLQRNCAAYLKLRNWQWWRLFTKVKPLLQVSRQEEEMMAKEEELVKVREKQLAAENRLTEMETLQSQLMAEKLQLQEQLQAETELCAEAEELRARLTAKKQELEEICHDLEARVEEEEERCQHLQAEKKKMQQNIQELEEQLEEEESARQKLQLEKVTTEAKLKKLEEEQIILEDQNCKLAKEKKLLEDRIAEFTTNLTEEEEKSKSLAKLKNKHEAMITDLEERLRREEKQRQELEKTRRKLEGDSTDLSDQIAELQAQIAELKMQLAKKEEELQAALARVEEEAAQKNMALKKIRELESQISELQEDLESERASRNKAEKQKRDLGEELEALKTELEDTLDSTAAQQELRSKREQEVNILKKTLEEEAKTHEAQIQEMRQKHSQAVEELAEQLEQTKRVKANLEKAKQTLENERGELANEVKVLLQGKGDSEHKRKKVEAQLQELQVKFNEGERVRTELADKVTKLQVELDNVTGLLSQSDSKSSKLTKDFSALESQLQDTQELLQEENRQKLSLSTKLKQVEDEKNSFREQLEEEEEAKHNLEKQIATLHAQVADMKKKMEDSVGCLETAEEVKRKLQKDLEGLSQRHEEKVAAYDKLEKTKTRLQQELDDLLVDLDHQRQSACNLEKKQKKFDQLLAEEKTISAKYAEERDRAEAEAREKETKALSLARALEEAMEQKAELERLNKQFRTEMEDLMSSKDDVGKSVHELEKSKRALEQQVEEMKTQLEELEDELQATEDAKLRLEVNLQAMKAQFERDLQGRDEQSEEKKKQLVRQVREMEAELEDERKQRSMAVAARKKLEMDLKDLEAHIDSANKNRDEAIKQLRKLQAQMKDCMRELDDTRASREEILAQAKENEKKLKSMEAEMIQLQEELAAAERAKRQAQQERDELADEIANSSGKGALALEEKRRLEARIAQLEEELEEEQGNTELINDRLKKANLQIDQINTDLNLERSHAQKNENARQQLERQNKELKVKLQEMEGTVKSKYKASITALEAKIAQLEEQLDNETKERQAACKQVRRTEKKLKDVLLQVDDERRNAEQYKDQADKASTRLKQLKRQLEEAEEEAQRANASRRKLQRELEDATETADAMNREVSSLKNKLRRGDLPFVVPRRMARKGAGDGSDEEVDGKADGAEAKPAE

In assay [1] the target is Flag-tagged Chromobox protein homolog 7 (CBX7), co-transfected with HA-MYH9 (human) (UniProt O95931). As to the kind of experiment: co-IP; co-transfection of Flag-CBX7 and HA-MYH9 (293T cells by the text, U251 and LN229 by the legend); whole-cell lysates precipitated with anti-Flag or anti-HA antibodies and protein A/G microbeads, western blotting.
In assay [2] the target is Chromobox protein homolog 7 (CBX7), endogenous (human (endogenous in U251 and LN229)) (UniProt O95931). As to the kind of experiment: co-IP; endogenous proteins in U251 and LN229 cells; IP with anti-CBX7 or anti-MYH9 antibodies, western blotting.

As to “HA-tagged myosin heavy chain 9 (MYH9) (from UniProt P35579 1-1960)”, the binding entry in assay [1] is recorded as “binds”.

As for “myosin heavy chain 9 (MYH9), endogenous (from UniProt P35579 1-1960)”, the binding result in assay [2] is on record as “binds”.

These data come from PMC11847914.
